Drawing on publication PMC8751585, this text covers binding for 1 substance.

The chains behind the UniProt entries cited, without tags or fusion partners.
UniProt P51858: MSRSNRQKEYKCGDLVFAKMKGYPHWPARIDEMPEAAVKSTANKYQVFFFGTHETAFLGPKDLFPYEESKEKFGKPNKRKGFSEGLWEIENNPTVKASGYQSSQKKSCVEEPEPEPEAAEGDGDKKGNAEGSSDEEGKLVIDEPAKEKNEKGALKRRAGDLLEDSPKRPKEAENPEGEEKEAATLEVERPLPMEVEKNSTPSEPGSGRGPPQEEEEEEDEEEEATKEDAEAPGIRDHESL
UniProt P05412: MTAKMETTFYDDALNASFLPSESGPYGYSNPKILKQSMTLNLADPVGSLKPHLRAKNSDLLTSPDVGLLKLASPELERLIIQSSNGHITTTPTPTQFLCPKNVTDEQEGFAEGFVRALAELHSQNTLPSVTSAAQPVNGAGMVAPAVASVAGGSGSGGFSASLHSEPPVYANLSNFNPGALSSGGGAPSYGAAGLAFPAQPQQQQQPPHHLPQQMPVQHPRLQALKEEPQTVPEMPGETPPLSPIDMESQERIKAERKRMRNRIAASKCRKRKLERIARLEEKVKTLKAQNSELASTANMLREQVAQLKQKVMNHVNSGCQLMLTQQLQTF

This test addresses hepatoma-derived growth factor (HDGF) (human (endogenous in U87 and LN229)) (UniProt P51858). Kind of test: co-IP; endogenous proteins; U87 and LN229 cells lysed in Pierce IP Lysis buffer with protease and phosphatase inhibitors; Pierce co-IP kit; 10 ug anti-HDGF, anti-NAP1L1, anti-c-Jun or normal rabbit IgG with 5 mg protein overnight; western blot.

No constants are given. Whether binding was seen depends on the method and setting. In cells and extracts the contact can be indirect. Some results given as binding are weak or reduced against the parent protein; the word gives no strength.

Take c-Jun (from UniProt P05412 1-331): the binding entry is “binds”.
